# Among all 300,000 compounds or so, about 5,200 (1.7%) were called active. The shares of active, inactive and inconclusive entries below differ from those in the screen.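 Rule for the calls: active = mean replicate activation of at least 50% with a set share of replicates each reaching 50%; inconclusive = only one of those two conditions met; inactive = mean below 50% and too few replicates reaching it.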
# Assay: HSF-1 activators, primary screen, NIH3T3-HGL cells, MG132 stress, luminescence, single point (AID 504408);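 note: 0% = median of the neutral control wells and 100% = twice that signal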
# Conditions: NIH3T3-HGL HSF-1 luciferase reporter, MG132, 8 h; at 9 µM; stronger effect = higher value; 100% = twice DMSO control signal
row,Compound,activation
1,O=C(c1ccc(-c2cccc(Cl)c2Cl)o1)N1CCOCC1,inconclusive: 55%
2,COc1ccccc1NC(=O)NC(=O)c1ccccc1,inconclusive: 50.9%
3,Cc1cccc(Nc2n[nH]c(C)c2[N+](=O)[O-])c1,inconclusive: 51.6%
4,CCC(CC)c1nnc(NC(=O)c2ccc3ccccc3n2)s1,active: 52.9%
5,CCOC(=O)c1c(C)[nH]c(C(=O)CN2C(=O)NC(C)(c3ccc(C)cc3)C2=O)c1C (stereo unspecified),inconclusive: 61.9%
6,C=CCn1c(C)cc(C(=O)Cn2ncc(Cl)c(Cl)c2=O)c1C,inconclusive: 51.9%
7,Cn1c(=O)cc(SCC(=O)N2CCCC2)c2ccccc21,inconclusive: 95.4%
8,Nc1cc(-c2ccco2)no1,active: 71.9%
9,c1ccc(SCc2nc(-c3ccccn3)no2)cc1,inconclusive: 50.7%
10,CCOC(=O)c1cnn2c(C)cc(-c3ccc(F)cc3)nc12,inconclusive: 53.3%
11,Cc1ccc(C)c(OCC(=O)Nc2cccc(S(=O)(=O)NC3=NCCCCC3)c2)c1,inactive: 10.6%
12,CCc1nnc(NC(=O)c2nc(S(=O)(=O)Cc3ccc(C)cc3)ncc2Cl)s1,inactive: -63.4%
13,COc1ccc(-n2nc(C(=O)NCC(=O)N3CCCC3)c3ccccc3c2=O)c(OC)c1,inconclusive: 54.8%
14,CSc1nc2ccc(NC(=O)c3ccco3)cc2s1,inconclusive: 50.8%
15,COc1ccc(/C=N/n2cncn2)cc1COc1ccc(NC(C)=O)cc1,inconclusive: 50.4%
16,Cn1ncc(Br)c1C(=O)N1CCOCC1,active: 54.9%
17,Cc1ccc(-c2cc(C(=O)N3CC(C)CC(C)C3)c3ccccc3n2)o1 (stereo unspecified),inconclusive: 53.8%
18,COC(CNC(=O)C1CCCN(S(=O)(=O)c2c(C)noc2/C=C/c2cccs2)C1)OC (stereo unspecified),inconclusive: 52.6%
19,CC(=O)c1ccc(N2CCN(C(=O)CCS(=O)(=O)c3ccc4c(c3)CCN4C(C)=O)CC2)cc1,inactive: -6.73%
20,COc1ccccc1-c1cc(C(F)(F)F)nc(S(=O)(=O)CCCC(=O)N2CCCCC2C)n1 (stereo unspecified),active: 78.8%
21,Cc1cc(C(=O)N/N=C/c2ccc([N+](=O)[O-])s2)c2ccccc2n1,inconclusive: 63%
22,O=C(/C=C/c1ccc(Br)cc1)c1ccc(NC(=O)c2ccco2)cc1,inactive: 49.2%
23,Cc1nnc(Sc2cc(C(=O)NCCCN(C)Cc3ccccc3)c3ccccc3n2)s1,inactive: -9.45%

row,Compound,activation
1,Cc1nc(C)c(-c2csc(N)n2)s1,inactive: -3.45%
2,Cc1cc(N2CCOCC2)nc2ccc(NC(=S)NC(C)C)cc12,inactive: 36%
3,N#CCN(C(=O)COC(=O)C1CC2CCCC(C1)C2=O)c1ccccc1 (stereo unspecified),inactive: -11.4%
4,O=c1[nH]c2ccccc2n1CCC1CCCCC1,inconclusive: 55.3%
5,CC(=O)Nc1c(C)ccc(CNC(=O)COc2cc(C)ccc2C)c1C,inconclusive: 56.9%
6,CCN(CC)S(=O)(=O)c1ccc(N=Nc2c(C)[nH]n(C(N)=S)c2=O)cc1,inconclusive: 50.4%
7,COCn1c(COc2ccc3ccccc3c2)nc2ccccc21,inconclusive: 54.3%
8,CC1(C)CC(=O)C/C(=N/NC(=O)CCCOc2ccc(Cl)cc2Cl)C1,inconclusive: 55.5%
9,C#CCOCCOCCOCCNc1nc(N2CCN(C(=O)[C@H](Cc3cc4ccccc4[nH]3)n3cc(C(N)CC(C)C)nn3)CC2)nc(N2CCN(C(=O)[C@H](CCC(=O)O)n3cc(C(N)[C@H](C)CC)nn3)CC2)n1 (stereo partly specified),inconclusive: 53.3%
10,C/C(CCC(=O)O)=N/Nc1ccc([N+](=O)[O-])cc1[N+](=O)[O-],inactive: -36.7%
11,CCOC(=O)c1cc(NCc2cccs2)ccc1N1CCOCC1,inactive: 21.6%
12,Cc1nnc(NC(=O)CSc2ccc(-c3cccnc3)nn2)s1,inactive: -0.853%
13,C=CCS(=O)(=O)c1nc2ccccc2s1,inconclusive: 50.8%
14,CCOc1ccc(/C=N/Nc2ccccn2)cc1,inconclusive: 55.5%
15,CCc1nc2ccc(C(=O)NCCc3ccccc3OC)cc2nc1CC,inactive: -2.8%
16,CC(=O)/C(=N\Nc1ccccc1)Oc1ccc(Br)cc1,inconclusive: 52.1%
17,Cc1cccc(NC(=O)Nc2ccc(Cl)c(Cl)c2)n1,inconclusive: 72.3%
18,CCC1CCC2(CC1)SCC(=O)N2c1ccccc1 (stereo unspecified),inconclusive: 58%
19,Cc1cc(NC(=O)c2ccccc2)c(Cl)cc1N,inconclusive: 51.2%
20,Cc1cc(N2CCN(C)CC2)nc2ccc(NC(=S)NCc3cccs3)cc12,inactive: 43.4%
21,Cn1c2ccccc2c(=O)c2ccc(-c3ccc4c(c3)OCO4)cc21,inconclusive: 51.3%
22,Cc1cc(C)c(C(=O)Cn2nc(C(=O)O)c3ccccc3c2=O)cc1C,inconclusive: 60.4%
23,CCOC(=O)C(C)(C)N(Cc1ccc(C)cc1)S(=O)(=O)c1ccc(Cl)c([N+](=O)[O-])c1,inconclusive: 58%

# Single values from the entries so far:
# In activation, Cn1c2ccccc2c(=O)c2ccc(-c3ccc4c(c3)OCO4)cc21 has the entry inconclusive: 51.3%
# In activation, Cc1nnc(NC(=O)CSc2ccc(-c3cccnc3)nn2)s1 has the entry inactive: -0.853%
# In activation, CCOC(=O)c1cc(NCc2cccs2)ccc1N1CCOCC1 has the entry inactive: 21.6%
# In activation, Cc1cc(N2CCOCC2)nc2ccc(NC(=S)NC(C)C)cc12 has the entry inactive: 36%

# From PubChem BioAssay AID504408 (Broad Institute, 2011)
